Laboratory results reported in PubChem BioAssay AID493014 (National Center for Advancing Translational Sciences (NCATS), 2011).
The other results are listed elsewhere or left out. The main result of the screen is listed elsewhere. These columns were measured beside it and carry no call. Most of these compounds were active or inconclusive in the main read-out, so they are no random draw. The note in brackets gives the kind of curve behind each potency; many fits are weak.

Assay: qHTS Assay to Find Inhibitors of Chronic Active B-Cell Receptor Signaling
Details: ABC-DLBCL IkBa-CBG/CBR reporter, luminescence ratio (green luciferase fused to IkBa over red control in TMD8 lymphoma cells), 4 h
In short: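 Concentration-response series (up to 46 uM) were applied to TMD8 dual-reporter cells for 4 h at 37C with doxycycline. Green/red ratio, after filter-overlap correction, defined %Activity; red signal alone was normalised to basal cells and zero luminescence.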

[1] = measured here: CBR red luminescence, cell number
[2] = measured here: IkBa-CBG green luminescence

| SMILES | AC50 [1] | AC50 [2] |
| --- | --- | --- |
| CC(C)COc1nc2ccccc2nc1C(C#N)C(=O)NC1CCCCC1 (centres undefined) | 2.31 µM [rising, full curve] | – |
| COCC(C)NC(=O)CCS(=O)(=O)c1nc(-c2ccc(OC)cc2)cc(C(F)(F)F)n1 (centres undefined) | 2.91 µM [falling, full curve] | – |
| CSc1nc(-c2ccccc2)cn1-c1ccc(NC(C)=O)cc1 | 20 µM [falling, single point] | – |
| CCOc1cccc2sc(NN)nc12 | 5.01 µM [falling, full curve] | – |
| O=C1/C(=C\c2cccnc2)CCc2ccccc21 | 35.5 µM [falling, single point] | – |
| O=C(CCCC(=O)N(CC(=O)NC1CCCC1)Cc1ccccc1Cl)Nc1ccccn1 | 10 µM [falling, partial curve, poor fit] | – |
| Cc1csc(NC(=O)c2cn3ccccc3n2)n1 | 6.31 µM [falling, partial curve, poor fit] | – |
| CCOC(=O)C1=C(C)N(c2ccccc2)C(=O)/C1=C\c1cccs1 | 29.1 µM [rising, single point] | – |
| Cc1cc(C)c2c(N)c(C(=O)Nc3nccs3)sc2n1 | 15.8 µM [falling, partial curve, poor fit] | – |
| CCOC(=O)CC1(c2ccc(OC)c(OC)c2)C(=O)c2ccccc2C1=O | – | 20 µM [falling, partial curve, poor fit] |
| CCOc1ccc(NC(=O)CCSc2nc3c(c(CC)c2C#N)C(=O)CC(C)(C)C3)cc1 | 18.4 µM [falling, single point] | – |
| CC[C@]12c3[nH]c4cc(CCC(=O)N(C)C)ccc4c3CCN1C(=O)[C@@H](CC(=O)NCCN1CCOCC1)C[C@@H]2C(=O)N1CCN(C(=O)c2ccco2)CC1 | 3.26 µM [rising, full curve] | – |
| CCOC(=O)C(C)(C)N(Cc1ccccc1C)S(=O)(=O)c1ccc(Cl)c([N+](=O)[O-])c1 | 20.6 µM [falling, single point] | – |
| CCOC(=O)CSc1ccc(C(=O)Nc2ccc(Cl)cc2)cn1 | 12.6 µM [falling, partial curve, poor fit] | – |
| COc1ccc(C(O)P(=O)(O)CCc2ccccc2)cc1 (centres undefined) | 0.794 µM [falling, full curve, poor fit] | – |
| COc1ccccc1C(=O)N/N=C/c1cnc2ccccc2n1 | 10.3 µM [falling, partial curve, poor fit] | – |
| Cc1ccc(CN2C(=O)S/C(=C\c3ccccc3OCC(=O)O)C2=O)cc1 | 22.4 µM [falling, single point] | – |
| O=C(NCCCN1CCCCCC1)C1CC(=O)N(CCc2ccccc2)C1 (centres undefined) | 6.31 µM [rising, single point] | – |
| O=C(CCc1nc(-c2ccc(F)cc2)no1)NCc1ccccc1CN1CCOCC1 | 0.731 µM [rising, full curve, poor fit] | – |
| O=C(CCC(=O)c1ccc(Oc2ccccc2)cc1)Nc1ccc(C(=O)O)cc1 | 4.47 µM [falling, partial curve, poor fit] | – |
| S=c1nc[nH]c2c1ncn2C1CCCO1 (centres undefined) | 3.55 µM [rising, full curve] | – |
| COC(=O)c1ccc(CN2C(=O)NC3(CCCCC3)C2=O)cc1 | 20 µM [falling, single point] | – |

Arranged by molecular weight (rising): part of the list above.

| SMILES | AC50 [1] | AC50 [2] |
| --- | --- | --- |
| O=C1/C(=C\c2cccnc2)CCc2ccccc21 | 35.5 µM [falling, single point] | – |
| Cc1csc(NC(=O)c2cn3ccccc3n2)n1 | 6.31 µM [falling, partial curve, poor fit] | – |
| COc1ccc(C(O)P(=O)(O)CCc2ccccc2)cc1 (centres undefined) | 0.794 µM [falling, full curve, poor fit] | – |
| COC(=O)c1ccc(CN2C(=O)NC3(CCCCC3)C2=O)cc1 | 20 µM [falling, single point] | – |
| CSc1nc(-c2ccccc2)cn1-c1ccc(NC(C)=O)cc1 | 20 µM [falling, single point] | – |
| CC(C)COc1nc2ccccc2nc1C(C#N)C(=O)NC1CCCCC1 (centres undefined) | 2.31 µM [rising, full curve] | – |
| O=C(CCC(=O)c1ccc(Oc2ccccc2)cc1)Nc1ccc(C(=O)O)cc1 | 4.47 µM [falling, partial curve, poor fit] | – |
| O=C(CCc1nc(-c2ccc(F)cc2)no1)NCc1ccccc1CN1CCOCC1 | 0.731 µM [rising, full curve, poor fit] | – |
| CCOc1ccc(NC(=O)CCSc2nc3c(c(CC)c2C#N)C(=O)CC(C)(C)C3)cc1 | 18.4 µM [falling, single point] | – |
| O=C(CCCC(=O)N(CC(=O)NC1CCCC1)Cc1ccccc1Cl)Nc1ccccn1 | 10 µM [falling, partial curve, poor fit] | – |
| COCC(C)NC(=O)CCS(=O)(=O)c1nc(-c2ccc(OC)cc2)cc(C(F)(F)F)n1 (centres undefined) | 2.91 µM [falling, full curve] | – |

The list continues:

| SMILES | AC50 [1] | AC50 [2] |
| --- | --- | --- |
| CCCCOC(=O)c1ccc(N)cc1 | 14.6 µM [rising, single point] | – |
| CCOc1ccc(NC(=O)CN(C)C(=O)CCCc2c[nH]c3ccccc23)cc1OCC | 9.2 µM [falling, partial curve] | – |
| Cc1ccc(-c2nnc(NC3CCCC3)s2)cc1 | 8.91 µM [falling, partial curve] | – |
| CCOC(=O)c1ccc(N2C(=O)[C@@H](c3ccccc3)[C@H]2c2ccccc2)cc1 | 20.6 µM [rising, single point] | – |
| CSc1ncccc1C(=O)OCc1c(F)cccc1Cl | 11.2 µM [rising, partial curve] | – |
| COc1cc(/C=C2/SC(=Nc3ccc(O)cc3)NC2=O)cc(OC)c1O | 0.2 µM [falling, full curve, poor fit] | – |
| COc1ccc2oc(C(=O)Nc3ccccn3)c(C)c2c1 | 7.94 µM [falling, partial curve] | – |
| CCS(=O)(=O)n1c(Cc2cccs2)nc2ccccc21 | 29.1 µM [falling, partial curve, poor fit] | – |
| COc1ccc(C(=O)c2c[nH]cc2-c2ccccc2)cc1 | 29.1 µM [rising, partial curve, poor fit] | – |
| Cc1ccc(S(=O)(=O)CC(=O)N2CCN(c3ccc([N+](=O)[O-])cc3)CC2)cc1 | 5.8 µM [falling, partial curve, poor fit] | – |
| CCOc1ccc(C(=O)NC(=S)Nc2ncccc2C)cc1[N+](=O)[O-] | – | 16.4 µM [falling, partial curve, poor fit] |
| CCOc1ccc(N(CC(=O)NC2CCCCCC2)S(=O)(=O)c2ccccc2)cc1 | 12.6 µM [falling, single point] | – |
| COC(=O)c1cccc(NC2=NS(=O)(=O)c3ccccc32)c1 | 11.2 µM [falling, single point] | – |
| COc1ccc(-c2cc(C(=O)NC3=NCCS3)c3ccccc3n2)cc1OC | 11.2 µM [falling, partial curve, poor fit] | – |
| CC(O)c1cccc(-c2ccc(CN3C[C@]4(CO)O[C@@H](CO)C[C@@H]4S3(=O)=O)cc2)c1 (some centres undefined) | – | 14.6 µM [falling, partial curve] |
| C=CCSc1nc2ccccc2c(=O)n1C1CCOC(C)(C)C1 (centres undefined) | 10 µM [rising, partial curve, poor fit] | – |
| COc1ccc(-c2oc3cccnc3c2-c2ccc(OC)nc2)cc1 | 35.5 µM [rising, single point] | – |
| O=C(N=Nc1c(O)[nH]c2ccc(Br)cc12)c1ccccc1-n1cccc1 | 18.4 µM [rising, single point] | – |
| COc1ccc(/C=N/NC(=O)c2ccc(-n3cnnn3)cc2)cc1 | 16.4 µM [falling, partial curve, poor fit] | – |
| CC1CCc2sc3nc(NCc4ccco4)n4ncnc4c3c2C1 (centres undefined) | 15.8 µM [rising, single point] | – |
| COc1nc(NC(C)(C)C)nc(Oc2ccc(=O)n(-c3ccccc3)n2)n1 | 1.12 µM [rising, full curve] | – |
| CCC(C(=O)NCc1ccccc1OC)n1nc(C)n2c(cc3occc32)c1=O (centres undefined) | 0.13 µM [falling, full curve, poor fit] | – |

| SMILES | AC50 [1] | AC50 [2] |
| --- | --- | --- |
| Cc1cc(SCC(=O)c2ccccc2)nc(C)n1 | 35.5 µM [falling, single point] | – |
| O=C(c1cccc(C(F)(F)F)c1)N1CCCC1 | 29.1 µM [falling, single point] | – |
| CCn1cc([N+](=O)[O-])c(C(=O)N2N=C(c3cccc4ccccc34)CC2c2ccccc2O)n1 (centres undefined) | 0.651 µM [falling, partial curve, poor fit] | – |
| COc1ccc(NC(=O)CN(C)C(=O)c2cc(-c3ccc(OC)cc3)nc3ccccc23)cc1 | 32.6 µM [falling, partial curve, poor fit] | – |
| CCNC(=S)N(Cc1ccc2c(c1)OCO2)C1CC(=O)N(c2ccc(F)cc2)C1=O (centres undefined) | 9.2 µM [falling, partial curve, poor fit] | – |
| CCOC(=O)C1CCN(Cc2c(O)c3ccccc3oc2=O)CC1 | 0.316 µM [falling, full curve, poor fit] | – |
| O=C(CCCSc1nnc(Nc2ccccc2F)s1)N1CCOCC1 | 4.47 µM [falling, partial curve] | – |
| O=C(Nc1ccccc1F)N(CCCN1CCOCC1)Cc1cc2cc3c(cc2[nH]c1=O)OCCO3 | 12.6 µM [falling, partial curve, poor fit] | – |
| COc1cccc(OCCCCSc2ncccn2)c1 | 0.517 µM [falling, partial curve, poor fit] | – |
| Cc1ccc(C)c(N2CCN(C(=S)Nc3ccc4nc(N5CCOCC5)cc(C)c4c3)CC2)c1 | 20 µM [falling, partial curve, poor fit] | – |
| COc1ccc(C(=O)Nc2cccc(-c3nnc(-c4ccco4)o3)c2)cc1 | 32.6 µM [falling, single point] | – |
| O=C(CNC(=O)c1ccccn1)N=Nc1c(O)[nH]c2ccccc12 | 12.6 µM [falling, partial curve] | – |
| O=C(COc1ccccc1)N1CCN(C(=O)COc2ccccc2)CC1 | 0.631 µM [rising, full curve] | – |
| O=C(O)CCCNC(=O)Nc1ccccc1 | 4.11 µM [rising, full curve] | – |
| CCOC(=O)c1sc2nc(CC(=O)OC)nc(NCCN3CCOCC3)c2c1C | 16.4 µM [falling, partial curve, poor fit] | – |
| COC(=O)[C@@H]1C[C@@]2(O)[C@H](O)[C@H](O)[C@H](O)C[C@H]2N1CC(c1ccccc1)c1ccccc1 | 0.112 µM [rising, full curve, poor fit] | – |
| C=C(C)CSc1nnc(-c2ccc(C)cc2)n1N | 0.58 µM [rising, full curve, poor fit] | – |
| COc1ccc(-c2nnc(SCc3ccccc3F)o2)cc1OC | 10 µM [rising, partial curve, poor fit] | – |
| COc1ccccc1C(=O)NCCn1cc(SCC(=O)NCC2CCCO2)c2ccccc21 (centres undefined) | 10 µM [falling, partial curve] | – |
| CCOCCOC(=O)COC(=O)c1ccccc1NC(=O)c1ccccc1 | 29.1 µM [falling, single point] | – |
